No constants are given. Whether binding was seen depends on the method and setting. Some binding calls cover weakened binding; strength is not graded here.
B1: ICA2002-18D8C7-1-hIgG1 (antibody, V domains shown)
VH: EVQLVESGGDLVKPGGSLKLSCAASGFTFSNYGMSWVRQTPDKRLEWVATISNGGSYTYYPDNVKGRFTISRDNAKNTLYLQMSSLKSEDTATYYCARHAWDYWGQGTTLTVSS
VL: QIVLTQSPAIMSAFPGEKVTMTCNASSSVSYMYWYQQKSGTSPKRWIYDTSKLASGVPARFSGSGSGTSYSLTISIMEAEDAATYYCQHWSTNPLTFGAGTKLELK
B2: ICA2002-50A5-1-hIgG1 (antibody, V domains shown)
VH: EVQLQQSGPELVKPGASVKISCKASGFSFTGYTMNWVKQTHGKNLEWIGLINPYTGGTTYKQKFKGKATLTVDKSSNTAYMELLSLTSEDSAVYYCTRGGFYRYDGDYWGQGTTLTVSS
VL: DIQMTQSPSSLSASLGERVSLTCRASQDIGNYLTWLQQEPDGTIKRLIYATSSLHSGVPKRFSGSRSGSDYSLTISSLESEDFVDYYCLQYSSSPWTFGGGTKLEIR
B3: ICA2002-50C1-1-hIgG1 (antibody, V domains shown)
VH: EVQLQQSGPELVKPGASVKISCKASGFSFTGYTMNWVKQSHGKNLEWIGLINPYNGGTTYKQKFKGKATLTVDKSSNTAYMELLSLTSEDSAVYYCTRGGFYRYDGDYWGQGTTLTVSS
VL: VIQLTQSPSSLSASLGERVSLTCRASQDIGNYLTWLQKEPNGTIKRLIYATFSLHSGVPKRFSGSRSGSDYSLTISSLESEDFVDYYCLQYSSSPWTFGGGTKLEIR

The chains behind the UniProt entries cited, without tags or fusion partners.
UniProt Q9NZD1: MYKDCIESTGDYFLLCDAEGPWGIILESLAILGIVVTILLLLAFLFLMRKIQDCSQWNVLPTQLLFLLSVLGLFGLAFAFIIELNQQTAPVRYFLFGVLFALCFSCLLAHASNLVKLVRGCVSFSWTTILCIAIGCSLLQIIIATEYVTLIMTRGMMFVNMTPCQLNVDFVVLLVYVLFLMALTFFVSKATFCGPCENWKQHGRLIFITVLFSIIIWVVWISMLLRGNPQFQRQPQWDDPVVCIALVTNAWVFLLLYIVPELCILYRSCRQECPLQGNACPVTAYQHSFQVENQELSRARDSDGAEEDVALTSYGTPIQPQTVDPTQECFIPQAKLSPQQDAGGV

These binders were tested against GPRC5D (reagent of the screening ELISA) (UniProt Q9NZD1) (assay: ELISA affinity screen after DNA and cell immunisation of BALB/c mice (anti-human Fc capture, OD450)).

binding, binds:
B1
B2
B3
